This passage reports binding results from publication PMC9873702.

Protein sequences, listed by entry. Tags and fused reporters are not part of them. Chains listed by the source or under a name are the forms on record and can include a tag or linker. Residues count along the entry.
GluN2A C-terminal domain (aa 1244-1464), myc-tagged (P35436, residues 1244-1464): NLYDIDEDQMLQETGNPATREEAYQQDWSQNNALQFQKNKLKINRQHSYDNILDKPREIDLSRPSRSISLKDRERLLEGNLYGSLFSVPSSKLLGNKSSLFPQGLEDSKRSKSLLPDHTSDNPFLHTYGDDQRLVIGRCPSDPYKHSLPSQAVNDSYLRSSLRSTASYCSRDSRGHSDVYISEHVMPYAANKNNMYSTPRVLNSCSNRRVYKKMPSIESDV
GluN2A-CTD aa 1244-1388 (P35436, residues 1244-1388): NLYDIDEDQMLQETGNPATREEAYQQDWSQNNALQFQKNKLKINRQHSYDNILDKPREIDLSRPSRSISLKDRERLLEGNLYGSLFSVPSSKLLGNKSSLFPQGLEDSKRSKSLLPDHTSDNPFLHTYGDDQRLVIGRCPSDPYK
GluN2A-CTD aa 1244-1348 (P35436, residues 1244-1348): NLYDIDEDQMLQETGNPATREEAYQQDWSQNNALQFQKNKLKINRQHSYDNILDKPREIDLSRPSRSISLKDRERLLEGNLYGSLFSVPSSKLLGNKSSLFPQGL
GluN2A-CTD aa 1349-1464 (P35436, residues 1349-1464): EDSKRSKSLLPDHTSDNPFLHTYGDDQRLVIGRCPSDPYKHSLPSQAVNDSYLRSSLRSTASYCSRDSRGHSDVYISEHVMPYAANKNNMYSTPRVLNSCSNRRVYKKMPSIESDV
GluN2A-CTD aa 1349-1388 (P35436, residues 1349-1388): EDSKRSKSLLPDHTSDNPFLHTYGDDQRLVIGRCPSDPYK
GluN2A-CTD aa 1389-1464 (P35436, residues 1389-1464): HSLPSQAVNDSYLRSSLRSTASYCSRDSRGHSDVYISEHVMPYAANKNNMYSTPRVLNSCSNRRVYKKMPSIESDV

What all share (test): co-IP; Flag-tagged Rph3A, myc-tagged GluN2A or HA-tagged PSD95 co-transfected; lysis buffer 50 mM Tris-HCl, 1 mM EDTA, 150 mM NaCl, 1% Igepal CA-630; anti-Flag or anti-myc magnetic agarose beads, 4 °C overnight; western blot; the GluN2A-CTD/PSD95 co-IP was done in the presence of WT or R9A Rph3A
The target of test [1] is GluN2A-CTD aa 1244-1388 (mouse) (UniProt P35436).
The target in test [2] is GluN2A-CTD aa 1349-1464 (mouse) (UniProt P35436).
The target in test [3] is GluN2A-CTD aa 1244-1348 (mouse) (UniProt P35436).
The target of test [4] is GluN2A-CTD aa 1389-1464 (mouse) (UniProt P35436).
Test [5] deals with GluN2A-CTD aa 1349-1388 (mouse) (UniProt P35436).
Test [6] has as its target GluN2A C-terminal domain (aa 1244-1464), myc-tagged (mouse) (UniProt P35436).

Results are given in words; binding and its absence hold for the method and conditions named. In cells and extracts the contact can be indirect. Some results given as binding are weak or reduced against the parent protein; the word gives no strength.

Take “Rabphilin-3A, full length, Flag-tagged (from UniProt Q9Y2J0 1-694)”: the binding entry in test [1], in test [2], in test [3], in test [4], in test [5] and in test [6] was “binds” in each case.

B1: Rabphilin-3A aa 1-179 (domain or fragment, UniProt Q9Y2J0 1-179)
chain: MTDTVFSNSSNRWMYPSDRPLQSNDKEQLQAGWSVHPGGQPDRQRKQEELTDEEKEIINRVIARAEKMEEMEQERIGRLVDRLENMRKNVAGDGVNRCILCGEQLGMLGSACVVCEDCKKNVCTKCGVETNNRLHSVWLCKICIEQREVWKRSGAWFFKGFPKQVLPQPMPIKKTKPQQ
On to B1, for which, in test [6], the binding entry is “binds”.

B2: Rabphilin-3A IDR1 + ZF (aa 1-157) (domain or fragment, UniProt Q9Y2J0 1-157)
chain: MTDTVFSNSSNRWMYPSDRPLQSNDKEQLQAGWSVHPGGQPDRQRKQEELTDEEKEIINRVIARAEKMEEMEQERIGRLVDRLENMRKNVAGDGVNRCILCGEQLGMLGSACVVCEDCKKNVCTKCGVETNNRLHSVWLCKICIEQREVWKRSGAWF
Consider B2, for which, in test [6], the binding result is “binds”.
